For part of these data: A negative result means that nothing was seen under these conditions. For part of these data: Weaker means in comparison with the reference protein, sequence or condition of that experiment. For part of these data: Results from cells or extracts need not show a direct contact. For part of these data: Construct, isoform or probe ends are uncertain for at least one entry.
Columns and labels:
[1] = target: Transferrin receptor (TfR) on bEnd.3 cells (Mus musculus) (UniProt Q62351); test: flow cytometry; conditions: protein on the cell surface
[2] = target: Transferrin receptor (TfR) on bEnd.3 cells (Mus musculus) (UniProt Q62351); test: activity in cells; conditions: 90 min, protein on the cell surface, dose not given here
[3] = tested on: Tau441 (2N4R tau) (Homo sapiens); test: inhibition of the protein; conditions: purified recombinant protein, single-stranded DNA, dose not given here
[4] = tested on: Endogenous Tau in N2a cells (Mus musculus); test: activity in cells; conditions: dose-dependent reduction of okadaic acid-induced tau oligomers and P-Tau, lipofectamine; protein in cells; single-stranded DNA; variant of BW1b; dose not given here
[5] = tested on: Tau441 (2N4R tau) (Homo sapiens); test: binding assay; conditions: dot blot, 100 nM; weaker than BW1; purified recombinant protein; label: 5' Cy5; single-stranded DNA; variant of BW1
Casein (alpha and beta) = test: binding assay; conditions: dot blot, purified native protein, single-stranded DNA
IgG = test: binding assay; conditions: dot blot, purified native protein, single-stranded DNA
[6] = tested on: Phosphorylated Tau (P-Tau); test: binding assay; conditions: dot blot, only one main band at native Tau; purified recombinant protein; label: FAM; single-stranded DNA
S100B = S100B (UniProt P04271); test: EMSA; conditions: purified recombinant protein
[7] = transport, single-stranded DNA, variant of Circular Tau-TfR bispecific aptamer
[8] = inhibits arachidonic acid-induced oligomerization, label: FAM

Protein sequences, listed by entry. Tags and fused reporters are not part of them. Lines headed by an entry give the natural chain unless they say otherwise; changes in a name come on top. Residues count along the entry.
UniProt Q62351, whole entry: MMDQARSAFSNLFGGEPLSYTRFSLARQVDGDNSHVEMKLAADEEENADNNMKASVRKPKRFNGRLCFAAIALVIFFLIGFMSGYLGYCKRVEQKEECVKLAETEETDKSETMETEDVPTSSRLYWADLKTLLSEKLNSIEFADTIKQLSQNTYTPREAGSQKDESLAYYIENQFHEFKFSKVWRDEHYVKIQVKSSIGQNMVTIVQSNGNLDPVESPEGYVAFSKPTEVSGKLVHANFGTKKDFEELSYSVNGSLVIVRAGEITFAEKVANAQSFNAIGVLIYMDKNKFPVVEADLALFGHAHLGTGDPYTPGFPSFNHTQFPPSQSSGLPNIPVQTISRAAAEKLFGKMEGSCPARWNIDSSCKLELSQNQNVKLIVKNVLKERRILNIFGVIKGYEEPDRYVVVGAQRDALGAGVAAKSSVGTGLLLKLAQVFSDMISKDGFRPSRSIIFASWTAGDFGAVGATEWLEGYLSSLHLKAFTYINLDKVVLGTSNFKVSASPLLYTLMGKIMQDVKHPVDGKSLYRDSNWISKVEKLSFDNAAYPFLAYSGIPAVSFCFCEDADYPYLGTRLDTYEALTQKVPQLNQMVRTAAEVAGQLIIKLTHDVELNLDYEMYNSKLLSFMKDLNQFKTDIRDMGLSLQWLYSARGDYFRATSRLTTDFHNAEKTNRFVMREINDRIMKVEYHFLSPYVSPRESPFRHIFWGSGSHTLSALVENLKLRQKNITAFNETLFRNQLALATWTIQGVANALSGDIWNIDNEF
UniProt P04271, 2-92: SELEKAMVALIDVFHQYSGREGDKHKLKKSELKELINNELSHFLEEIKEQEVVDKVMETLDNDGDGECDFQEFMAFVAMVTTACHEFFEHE

Sequence	binding result (Casein (alpha and beta); label: FAM)	binding result (IgG; label: FAM)	binding result [6]	functional effect of the aptamer [3, 8]	also measured
CGTAAATCAGTCAGAAGGCGTGGTACCACGCTTTC [TfR aptamer (13-base extended)]					binding result ([1]; smaller shift than circular aptamer, label: FITC-dT near 3' end, single-stranded DNA): binds
CGTAAATCAGTCAGAAGGCGTGGTACCACGCTTTCTGACTGATTTACGGAAGCTGAATAAGGACTGCTTAGGATTGCGATGATTCAGCTTC [Linear IT2a-TfR aptamer]					functional effect of the aptamer [2, 7]: less active
CGTAAATCAGTCAGAAGTCGACGCCGGTCGACTTCTGACTGATTTACGGAAGTTACGGACGGATGTCAGTGGTATAGTAATCCGTAACTTC					functional effect of the aptamer ([2]; transport control, folded or branched DNA, variant of Circular Tau-TfR bispecific aptamer): not active
CTGAATAAGGACTGCTTAGGATTGCGATGATTCAG [IT2a aptamer]					functional effect of the aptamer ([3]; inhibits aggregation (ThT), less than BW1 and BW1c): active
GACGATAGCATCACTCCCCCCCACCTATTACATCATCATAAATTGAGTGCTATCGTC [BW1c]					functional effect of the aptamer [4]: active; functional effect of the aptamer ([3]; inhibits arachidonic acid/heparin-induced aggregation (ThT) and GSK3B phosphorylation, label: 5' Cy5, variant of BW1b): active
GACGATGGCATCACTCCCCCCCACCTATTACATCATCATAAATTGAGTGCTATCGTC [BW1b]					binding result [5]: binds more weakly
GACTTGACGATGGCATCACTCCCCCCCACCTATTACATCATCATAAATTGAGTGCTATCGTCTGTC [BW1a]					binding result [5]: binds more weakly
TCACCTGAGACTTGACGATGGAACTCCCCCCACCATTATCAGCGCACCACCATTGTAGAGTGCTATCGTCTGTCCA [BW3]	no binding	no binding	no binding	active	
TCACCTGAGACTTGACGATGGCAATCCCCCCGACACCGAATCCTAAGCGAACAACGCGAGTGCTATCGTCTGTCCA [BW10]	no binding	no binding	no binding	active	
TCACCTGAGACTTGACGATGGCACTACCCCTCCCTACTAAGCACGGTATCTTGTACTGAGTGCTATCGTCTGTCCA [BW8]	no binding	no binding	no binding	active	
TCACCTGAGACTTGACGATGGCATCACTCCCCCCCACCTATTACATCATCATAAATTGAGTGCTATCGTCTGTCCA [BW1]					binding result (Casein (alpha and beta); label: FAM or 5' Cy5): no binding; binding result (IgG; label: FAM or 5' Cy5): no binding; functional effect of the aptamer ([3]; inhibits arachidonic acid/heparin-induced aggregation (most robust) and GSK3B phosphorylation, label: FAM or 5' Cy5): active
TCACCTGAGACTTGACGATGGCCTCCCCCTCACGCACTCTTCCGTTTCTTCTTATCTGAGTGCTATCGTCTGTCCA [BW2]	no binding	no binding	no binding	active	
TCACCTGAGACTTGACGATGGGAACAAACACCGCGACCACCCCCCCACTTAACTCCTGAGTGCTATCGTCTGTCCA [BW9]	no binding	no binding	no binding	active	
TCACCTGAGACTTGACGATGGTACGACGGCCCCCCGATTATGCGACTACTTGATTTGAGTGCTATCGTCTGTCCA [BW5]	no binding	no binding	no binding	active	
TCACCTGAGACTTGACGATGGTCAGAACGACGCGCCCCCCACCTCATTCATTATTTTGAGTGCTATCGTCTGTCCA [BW6]	no binding	no binding	no binding	active	
TCACCTGAGACTTGACGATGGTGACCACCCCCCACGCACACACACCTCTTCCATCCTGAGTGCTATCGTCTGTCCA [BW7]	no binding	no binding	no binding	active	
TCACCTGAGACTTGACGATGGTTTAACTCCCCCACGCCCCCCGCCAACCCATCTCCAGAGTGCTATCGTCTGTCCA [BW4]	no binding	no binding	no binding	active	
TGACTGATTTACGGAAGCTGAATAAGGACTGCTTAGGATTGCGATGATTCAGCTTC [IT2a Tau aptamer (13-base extended)]					binding result (S100B; profile stated same as circular aptamer, label: FITC-dT near 3' end, single-stranded DNA): no binding; functional effect of the aptamer ([2]; transport control, single-stranded DNA): not active
TGACTGATTTACGGAAGCTGAATAAGGACTGCTTAGGATTGCGATGATTCAGCTTCCGTAAATCAGTCAGAAGCTGAATAAGGACTGCTTAGGATTGCGATGATTCAGCTTC [Circular IT2a/cIT2a dimeric Tau aptamer]					functional effect of the aptamer ([2]; transport control, folded or branched DNA): not active
TGACTGATTTACGGAAGCTGAATAAGGACTGCTTAGGATTGCGATGATTCAGCTTCCGTAAATCAGTCAGAAGGCGTGGTACCACGCTTTC [Circular Tau-TfR bispecific aptamer]					binding result (S100B; specificity control, label: one or two FITC-dT, folded or branched DNA): no binding; binding result ([1]; 400 nM, 4 C, no binding to TfR-negative HEK293T, label: one or two FITC-dT, folded or branched DNA): binds; functional effect of the aptamer ([2]; transport across bEnd.3 monolayer, transport ratio 97±4% at 8 h, folded or branched DNA): active
TTTTTTTTTTTTTGAAGGCGTGGTACCACGCTTTCTTTTTTTTTTTTTGAAGCTGAATAAGGACTGCTTAGGATTGCGATGATTCAGCTTC [Linear T-IT2a-TfR aptamer (poly-T)]					functional effect of the aptamer [2, 7]: less active
